Taken from: PubChem BioAssay AID1224826 (NIAID, 2016)

- Aim: 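Genes that change LPS-induced Tnf promoter activity in mouse macrophages when knocked down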 (primary screen)
- Cells: RAW264.7 G9 macrophages from mouse bearing reporters for p65 (GFP) and the Tnf promoter (mCherry)
- Reagents: siRNA pool against mouse genes, 100 nM
- Duration: 16 h of LPS stimulation, after 2 days of siRNA transfection
- Challenge: bacterial lipopolysaccharide (Salmonella minnesota R595), 10 ng/ml
- Measured: 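Nuclear mCherry signal of the Tnf promoter reporter measured by imaging after background removal, scaled to each plate median and turned into robust z-scores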
- Scale: Tnf reporter robust z-score: higher = stronger Tnf promoter reporter signal after LPS
- Call rule: 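a well counts as active at a score of -1.3 or below (Tlr4 knock-down control median) or above 3 (raised signal); controls and wells holding fewer than 50 cells are excluded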
- Calls: active = Tnf reporter clearly lowered or raised; inactive = no clear change in Tnf reporter
The whole screen tested about 17,000 reagents; below is an unselected part. About 1,110 of them (6.6%) count as active. 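Active means lowered or raised reporter signal; replicate intensities are raw and not normalised per plate.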 A number with no mark means an inactive call. Reagents against one gene are numbered here. Not all columns of the deposit are shown. No sequences are given here.

Mtmr6 | Tnf reporter robust z-score = 0.33; fewer than 50 cells in well = enough cells in well
Llph | Tnf reporter robust z-score = -0.57; fewer than 50 cells in well = enough cells in well
Slc6a8 | Tnf reporter robust z-score = 0.37; fewer than 50 cells in well = enough cells in well
4921522P10Rik | fewer than 50 cells in well = fewer than 50 cells per well; well left out of calls
Scn10a | Tnf reporter robust z-score = -0.09; fewer than 50 cells in well = enough cells in well
Ets2 | Tnf reporter robust z-score = -0.27; fewer than 50 cells in well = enough cells in well
Prss39 | Tnf reporter robust z-score = -1.08; fewer than 50 cells in well = enough cells in well
Tex11 | Tnf reporter robust z-score = 1.17; fewer than 50 cells in well = enough cells in well
Fgd4 | Tnf reporter robust z-score = 0.92; fewer than 50 cells in well = enough cells in well
Gltp | Tnf reporter robust z-score = 1.22; fewer than 50 cells in well = enough cells in well
Or52ab4 | Tnf reporter robust z-score = 1.16; fewer than 50 cells in well = enough cells in well
Ptges3l | fewer than 50 cells in well = fewer than 50 cells per well; well left out of calls
Gas1 | Tnf reporter robust z-score = -0.64; fewer than 50 cells in well = enough cells in well
Rcc1 | Tnf reporter robust z-score = -0.26; fewer than 50 cells in well = enough cells in well
Taf11 | Tnf reporter robust z-score = 0.09; fewer than 50 cells in well = enough cells in well
Zfp869 | Tnf reporter robust z-score = 1.57; fewer than 50 cells in well = enough cells in well
Cfap43 | Tnf reporter robust z-score = 0.04; fewer than 50 cells in well = enough cells in well
Or12d12 | Tnf reporter robust z-score = -0.2; fewer than 50 cells in well = enough cells in well
Rtl8a | Tnf reporter robust z-score = 2.51; fewer than 50 cells in well = enough cells in well
Fndc9 | Tnf reporter robust z-score = -0.91; fewer than 50 cells in well = enough cells in well
Nr1i3 | Tnf reporter robust z-score = -0.38; fewer than 50 cells in well = enough cells in well
Timp4 | Tnf reporter robust z-score = 0.59; fewer than 50 cells in well = enough cells in well
Vti1a #1 | Tnf reporter robust z-score = 2.98; fewer than 50 cells in well = enough cells in well
Vti1a #2 | fewer than 50 cells in well = fewer than 50 cells per well; well left out of calls
Zfp553 | Tnf reporter robust z-score = 0.23; fewer than 50 cells in well = enough cells in well
Wfs1 | Tnf reporter robust z-score = 0.09; fewer than 50 cells in well = enough cells in well
Stat1 | Tnf reporter robust z-score = -1.06; fewer than 50 cells in well = enough cells in well

Entries listed so far whose gene name starts with T or t:
Tex11 | Tnf reporter robust z-score = 1.17; fewer than 50 cells in well = enough cells in well
Taf11 | Tnf reporter robust z-score = 0.09; fewer than 50 cells in well = enough cells in well
Timp4 | Tnf reporter robust z-score = 0.59; fewer than 50 cells in well = enough cells in well
